# Measured values as given in PMC3177862, “Characterization of the Biosynthesis, Processing and Kinetic Mechanism of Action of the Enzyme Deficient in Mucopolysaccharidosis IIIC” (PLoS ONE, 2011).
# Results are given in words; binding and its absence hold for the method and conditions named. In cells and extracts the contact can be indirect. Some binding calls cover weakened binding; strength is not graded here. Where a sequence is shown, tags or fusion partners need not be part of it.
# T1: N-acetyltransferase beta-chain (44 kDa, Gly145-Ile635) with C-terminal His8Flag (human) (UniProt Q68CP4)
# T1 sequence (chain, Asn-linked oligosaccharides (2 potential sites; complex type only)): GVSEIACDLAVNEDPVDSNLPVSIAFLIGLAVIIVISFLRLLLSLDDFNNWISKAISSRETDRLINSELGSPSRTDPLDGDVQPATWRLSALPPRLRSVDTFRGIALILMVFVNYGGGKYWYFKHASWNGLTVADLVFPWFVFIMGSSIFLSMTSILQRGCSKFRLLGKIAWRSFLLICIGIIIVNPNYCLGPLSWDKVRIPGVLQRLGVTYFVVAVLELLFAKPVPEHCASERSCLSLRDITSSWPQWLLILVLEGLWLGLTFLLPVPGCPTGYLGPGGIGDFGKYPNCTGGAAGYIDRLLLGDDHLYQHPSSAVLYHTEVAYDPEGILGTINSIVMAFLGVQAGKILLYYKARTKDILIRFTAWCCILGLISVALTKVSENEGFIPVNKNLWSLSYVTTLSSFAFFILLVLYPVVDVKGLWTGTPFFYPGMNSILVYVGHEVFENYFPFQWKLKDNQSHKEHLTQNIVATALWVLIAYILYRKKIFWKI
# Molecular target: T1, N-acetyltransferase beta-chain (44 kDa, Gly145-Ile635) with C-terminal His8Flag (human)
# Experiment: co-IP; DDM extract (diluted to 0.2% DDM) of stably transfected HeLa cells on mouse anti-Flag M2 affinity gel overnight at 4°C, washed with 0.02% DDM in TBS, eluted with FLAG peptide or SDS sample buffer; reducing SDS-PAGE, SYPRO Ruby stain and Western blots with Flag and N-terminal antibodies
binder,measurement,value
"N-acetyltransferase alpha-chain (27 kDa, Lys43-Asn144) (domain or fragment, UniProt Q68CP4-2 43-144, Asn-linked oligosaccharides (3 potential sites; high mannose and complex types)) KKRHAELKMDQALLLIHNELLWTNLTVYWKSECCYHCLFQVLVNVPQSPKAGKPSAAAASVSTQHGSILQLNDTLEEKEVCRLEYRFGEFGNYSLLVKNIHN",binding,binds
